PubChem BioAssay AID1671195 | Yale University | 2021
Shown is an unselected part of about 22,000 reagents tested. About 1,510 of all reagents (6.9%) count as active. 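Active includes knockdowns raising or lowering LDL uptake; positive z-scores mean more uptake, negative mean less.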 A number with no mark means an inactive call.

Assay: 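Regulators of LDL receptor activity judged by labelled LDL uptake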 (primary screen)
System: human Huh7 hepatoma cells
Reagents: siRNA pool against human genes, 18 nM
Timing: about 2 to 2.5 days of knockdown, then 8 h LDL uptake
Conditions: DiI-labelled LDL at 30 µg/ml for 8 h, in lipoprotein-deficient serum medium
Measured: 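Fluorescent LDL signal imaged in cells, scaled to the plate median, robust z-score for each replicate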
Reading the numbers: robust z-score: higher = more LDL uptake after knockdown
Active means: 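a gene counts as active if at least two replicate z-scores exceed ±2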

| gene symbol | robust z-score, replicate 1 | robust z-score, replicate 2 | robust z-score, replicate 3 |
| --- | --- | --- | --- |
| LINC00906 | -1.88 | -1.17 | -1.48 |
| CHODL | -0.498 | -1.17 | 0.523 |
| SNX7 | 0.336 | 0.312 | 0.746 |
| IL32 | -1.45 | -1.01 | -1.81 |
| SGPL1 | 1.58 | 2.01 | 0.923 |
| CRYBB3 | -0.795 | 0.502 | -0.181 |
| TRIM8 | 0.913 | -0.851 | -0.104 |
| CCDC28B | -0.0724 | 0.485 | 0.429 |
| ARGFX | -0.458 | -0.962 | -0.781 |
| PRPF6 | 0.186 | -0.167 | 1.41 |
| LOC389173 (retired record) | -0.841 | -1.14 | -0.415 |
| MCM4 | -0.254 | 0.403 | 0.137 |
| TMEM145 | -1.49 | -1.46 | -1.12 |
| SNAI3-AS1 | -0.634 | -0.0655 | -0.785 |
| OR51F1 | -0.665 | -0.396 | -0.713 |
| KIAA1210 | -0.995 (active) | -1.93 | -2.15 |
| RAD23A | -0.796 | -1.12 | -0.657 |
| DONSON | -0.0794 | 0.49 | 0.456 |
| TSEN15 | 0.306 | -0.1 | -1.24 |
| ODAPH | -1.54 | -1.79 | -1.69 |
| TICRR | -0.366 | -0.207 | -0.278 |
| ARG2 | -1.43 | -1.37 | -1.38 |
| TRPC6 | -0.786 | -0.489 | -0.531 |
| SDF2L1 | -1.43 | -1.57 | -0.504 |
| DAAM1 | 2.04 | 0.673 | 1.2 |
| LOC441964 (retired record) | -0.0775 | 0.618 | 0.48 |
| UBQLN1 | 0.645 (active) | 2.3 | 2.12 |
| HPRT1 | -1.18 | -1.13 | -0.993 |
| SPINK7 | -0.093 | 0.303 | -0.61 |
| ADISSP | 1.34 | 1.18 | 0.526 |
| IKZF4 | 0.573 | 0.596 | 1.15 |
| RILPL2 | 1.84 | 1.73 | 1.16 |
| CRYGB | -0.723 | -0.918 | -0.0845 |
| SORBS2 | -0.33 | -0.8 | 0.0518 |
| FBXO48 | -0.869 | -1.14 | -0.867 |
| SEPTIN10 | -1.56 | -1.17 | -1.14 |
| ZNF689 | -1.72 | -0.626 | -1.25 |
| LOC441806 | -0.355 | 0.379 | -0.0787 |
| ZIC5 | -1.54 | -1.72 | -1.39 |
| SEZ6 | -0.725 | -0.599 | -1.26 |
| LOC440035 (retired record) | 1.58 | 1.02 | 0.626 |
| MAPT | 2.84 | 1.54 | 0.722 |
| FAM171B | -0.7 | -1.37 | -1.61 |
| PGRMC2 | 0.459 | 0.48 | 0.442 |
| CHRNA5 | 0.326 | -0.0227 | -0.193 |
| MGAT4C | 0.321 | 0.0533 | 1.02 |
| DNAJC3 | -0.935 | 0.0372 | -0.504 |
| HERC2 | -1.54 | -1.57 | -1.54 |
| CCDC59 | -0.189 | -2.33 | -0.605 |
| PRPSAP2 | 3 (active) | 3.37 | 3.41 |
| ZNF628 | -1.2 | -1.56 | -0.805 |
| GTF3A | 0.606 | 0.427 | 0.602 |
| TMX3 | 0.911 | 1.1 | 0.755 |
| PFKFB3 | -0.718 | -0.167 | -0.421 |
| LOC400622 | 1.2 | 1.21 | 1.18 |
| AKR1B15 | 1.58 | 2.2 | 1.29 |
| SETD7 | 0.631 | 0.763 | 1.32 |
| RPS6KA4 | 0.829 | 3.83 | 1.72 |
| PSMB1 | 1.25 | 0.706 | 1.27 |
| MS4A1 | -0.404 | 0.253 | -0.442 |
| KLHL11 | -0.48 | -1.12 | -0.554 |
| ITGA10 | 0.344 | -0.395 | -0.934 |
| FAM9A | -0.171 | -0.596 | -0.475 |
| PABPC3 | -0.533 | 0.105 | -1.18 |
| OR2J3 | -0.799 | -1.19 | -0.994 |
| STX2 | -0.314 | 0.262 | 0.148 |
| LINC03122 | -0.059 | 0.155 | -0.311 |
| POLDIP2 | -0.313 | -0.622 | 1.03 |

4 entries from above, ordered by “robust z-score, replicate 3”, ascending:
| gene symbol | robust z-score, replicate 1 | robust z-score, replicate 2 | robust z-score, replicate 3 |
| --- | --- | --- | --- |
| TMEM145 | -1.49 | -1.46 | -1.12 |
| SNAI3-AS1 | -0.634 | -0.0655 | -0.785 |
| LOC389173 (retired record) | -0.841 | -1.14 | -0.415 |
| MCM4 | -0.254 | 0.403 | 0.137 |
